Reference: the supplement of paper PMC12542422
Where a name gives a salt, the structure may show the parent alone. ± gives the standard deviation of the averaged measurements. The list shows a part of the results. These are raw signals, not scaled to a control.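 Ribosome-assembly readouts in HeLa cells were imaged via ENP1 staining, with or without export block, or inducible tagged ribosomal protein reporters. Machine learning classified per-cell signal location versus solvent (DMSO) controls. Hits surpassed the DMSO false-positive mean by five standard deviations and were visually confirmed; three biological replicates.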

Experiments:
[1] = test system: HeLa K (ENP1 immunofluorescence, +LMB); assay: fraction of cells with nucleolar or nucleolar/nucleoplasmic ENP1 signal (MainHitrate); higher = more cells with nucleolar/nuclear readout signal (for ENP1 -LMB: less RNAPI inhibition; for +LMB ENP1 and RP reporters: stronger nuclear/nucleolar retention, i.e. ribosome biogenesis defect); conditions: concentration: 1 µM; treatment time: 6 h; ENP1 +LMB; leptomycin B: 20 nM, last 1.5 h
[2] = test system: HeLa K (ENP1 immunofluorescence, no LMB); assay: as above; conditions: concentration: 1 µM; treatment time: 6 h; ENP1 -LMB; leptomycin B: none
[3] = test system: HeLa RPS2-YFP reporter; assay: fraction of reporter-positive cells with nuclear (nucleolar or nucleolar/nucleoplasmic) RPS2-YFP (MainHitrate); higher = more cells with nucleolar/nuclear readout signal (for ENP1 -LMB: less RNAPI inhibition; for +LMB ENP1 and RP reporters: stronger nuclear/nucleolar retention, i.e. ribosome biogenesis defect); conditions: concentration: 1 µM; treatment time: 6 h
[4] = test system: HeLa RPL29-GFP reporter; assay: fraction of reporter-positive cells with nuclear (nucleolar or nucleolar/nucleoplasmic) RPL29-GFP (MainHitrate); higher = more cells with nucleolar/nuclear readout signal (for ENP1 -LMB: less RNAPI inhibition; for +LMB ENP1 and RP reporters: stronger nuclear/nucleolar retention, i.e. ribosome biogenesis defect); conditions: concentration: 1 µM; treatment time: 6 h

Row | Compound | fraction [1] | fraction [2] | fraction of reporter-positive cells with nuclear [3] | fraction of reporter-positive cells with nuclear [4]
1 | Cc1cc(C(C#N)c2ccc(Cl)cc2)c(Cl)cc1NC(=O)c1cc(I)cc(I)c1O (stereo not drawn) [Closantel] | 0.082 ± 0.11 | 0.982 ± 0.032 | 0.136 ± 0.12 | 0.251 ± 0.07
2 | CNCC(=O)c1ccc(O)c(O)c1 [Adrenalone HCl] | 0.0818 ± 0.11 | 0.989 ± 0.019 | 0.124 ± 0.098 | 0.202 ± 0.054
3 | CCC1(c2ccc(N)cc2)CCC(=O)NC1=O (stereo not drawn) [Aminoglutethimide (Cytadren)] | 0.0468 ± 0.038 | 0.9992 ± 0.0014 | 0.0626 ± 0.0077 | 0.216 ± 0.013
4 | C=CC[C@]1(O)CC[C@H]2[C@@H]3CCC4=CC(=O)CCC4=C3C=C[C@@]21C [Altrenogest] | 0.0804 ± 0.1 | 0.99 ± 0.018 | 0.115 ± 0.099 | 0.206 ± 0.096
5 | C=CCN1CC[C@]23c4c5ccc(O)c4O[C@H]2C(=O)CC[C@@]3(O)[C@H]1C5 [Naloxone HCl] | 0.0594 ± 0.089 | 0.984 ± 0.028 | 0.12 ± 0.081 | 0.226 ± 0.068
6 | CC(C)=CC1C(C(=O)OCc2cccc(Oc3ccccc3)c2)C1(C)C (stereo not drawn) [Phenothrin] | 0.117 ± 0.11 | 0.996 ± 0.0069 | 0.0707 ± 0.054 | 0.296 ± 0.24
7 | CC(NC(C)(C)C)C(=O)c1cccc(Cl)c1 (stereo not drawn) [Amfebutamone (Bupropion)] | 0.131 ± 0.2 | 0.9957 ± 0.0075 | 0.115 ± 0.067 | 0.231 ± 0.097
8 | Cc1cccc(C(C)c2c[nH]cn2)c1C (stereo not drawn) [Medetomidine HCl] | 0.122 ± 0.19 | 0.986 ± 0.024 | 0.11 ± 0.089 | 0.215 ± 0.087
9 | CN1c2ccccc2C(NCCCCCCC(=O)O)c2ccc(Cl)cc2S1(=O)=O (stereo not drawn) [Tianeptine sodium] | 0.0724 ± 0.055 | 0.9986 ± 0.0024 | 0.106 ± 0.055 | 0.207 ± 0.087
10 | COC(=O)C1=CCCN(C)C1 [Arecoline] | 0.11 ± 0.15 | 0.972 ± 0.049 | 0.13 ± 0.1 | 0.213 ± 0.051
11 | O=C(O[C@H]1C[C@H]2CC[C@@H](C1)[N+]21CCCC1)C(O)(c1ccccc1)c1ccccc1 [Trospium chloride (Sanctura)] | 0.128 ± 0.19 | 0.993 ± 0.012 | 0.116 ± 0.08 | 0.279 ± 0.081
12 | Cc1cc(C(C#N)c2ccc(Cl)cc2)c(Cl)cc1NC(=O)c1cc(I)cc(I)c1O (stereo not drawn) [Closantel Sodium] | 0.0786 ± 0.097 | 0.992 ± 0.013 | 0.114 ± 0.1 | 0.213 ± 0.071
13 | CC(=O)Nc1cc([As](=O)(O)O)ccc1O [Acetarsone] | 0.105 ± 0.11 | 0.9964 ± 0.0062 | 0.181 ± 0.16 | 0.294 ± 0.26
14 | CNC1CC(N)C(O)C(OC2OC(CO)C(O)C3OC4(OC(C(N)CO)C(O)C(O)C4O)OC23)C1O (stereo not drawn) [Hygromycin B] | 0.117 ± 0.17 | 0.976 ± 0.042 | 0.111 ± 0.087 | 0.209 ± 0.066
15 | NCC(O)c1ccc(O)cc1 (racemic) [(+,-)-Octopamine HCl] | 0.0927 ± 0.11 | 0.986 ± 0.025 | 0.136 ± 0.076 | 0.213 ± 0.075
16 | O=C1CC[C@@]2(O)[C@H]3Cc4ccc(O)c5c4[C@@]2(CCN3CC2CC2)[C@H]1O5 [Naltrexone HCl] | 0.124 ± 0.18 | 0.991 ± 0.015 | 0.108 ± 0.099 | 0.229 ± 0.073
17 | O=P1(NCCCl)OCCCN1CCCl (stereo not drawn) [Ifosfamide] | 0.0802 ± 0.055 | 0.9974 ± 0.0045 | 0.0661 ± 0.024 | 0.225 ± 0.059
18 | C=C1C[C@@H]2[C@H](CC[C@]3(C)C(=O)CC[C@@H]23)[C@@]2(C)C=CC(=O)C=C12 [Exemestane] | 0.0937 ± 0.095 | 0.9972 ± 0.0049 | 0.116 ± 0.072 | 0.204 ± 0.065
19 | Cc1cccc([C@H](C)c2c[nH]cn2)c1C [Dexmedetomidine HCl (Precedex)] | 0.0684 ± 0.083 | 0.997 ± 0.0051 | 0.155 ± 0.098 | 0.247 ± 0.04
20 | NCCc1c[nH]c2ccc(O)cc12 [Serotonin HCl] | 0.0665 ± 0.084 | 0.9946 ± 0.0094 | 0.123 ± 0.089 | 0.224 ± 0.086
21 | Cn1c(CCCC(=O)O)nc2cc(N(CCCl)CCCl)ccc21 [Bendamustine HCL] | 0.0781 ± 0.083 | 0.9977 ± 0.004 | 0.114 ± 0.07 | 0.204 ± 0.056
22 | CC[C@@]1(O)C(=O)OCc2c1cc1n(c2=O)Cc2cc3ccccc3nc2-1 [Camptothecin] | 0.0648 ± 0.07 | 0.946 ± 0.093 | 0.0611 ± 0.024 | 0.207 ± 0.032
23 | Cc1cccc(Cc2c[nH]cn2)c1C [Detomidine HCl] | 0.0628 ± 0.079 | 0.9955 ± 0.0078 | 0.107 ± 0.095 | 0.237 ± 0.062
24 | C/C=C(\C)C(=O)N[C@@H](c1ccccc1)[C@@H](O)C(=O)O[C@H]1C[C@@]2(O)[C@@H](OC(=O)c3ccccc3)[C@@H]3[C@]4(OC(C)=O)CO[C@@H]4C[C@H](O)[C@@]3(C)C(=O)[C@H](OC(C)=O)C(=C1C)C2(C)C [Cephalomannine] | 0.14 ± 0.21 | 0.969 ± 0.053 | 0.183 ± 0.11 | 0.287 ± 0.063
25 | OC(c1ccccc1)(c1ccccc1)C1CCNCC1 [Azacyclonol] | 0.0608 ± 0.074 | 0.983 ± 0.03 | 0.121 ± 0.096 | 0.245 ± 0.089
26 | C#C[C@]1(O)C=C[C@H]2[C@@H]3CCC4=CC(=O)CC[C@@H]4[C@H]3CC[C@@]21CC [Gestodene] | 0.0879 ± 0.086 | 0.9985 ± 0.0027 | 0.137 ± 0.11 | 0.218 ± 0.055
27 | CN1C(=O)COc2c(C(=O)NC3CN4CCC3CC4)cc(Cl)cc21 (stereo not drawn) | 0.0891 ± 0.11 | 0.992 ± 0.014 | 0.11 ± 0.068 | 0.211 ± 0.08

Single records, as listed above. Order of values: fraction [1]	fraction [2]	fraction of reporter-positive cells with nuclear [3]	fraction of reporter-positive cells with nuclear [4]
Cc1cc(C(C#N)c2ccc(Cl)cc2)c(Cl)cc1NC(=O)c1cc(I)cc(I)c1O (stereo not drawn) [Closantel Sodium] is listed as 0.0786 ± 0.097	0.992 ± 0.013	0.114 ± 0.1	0.213 ± 0.071
CC(NC(C)(C)C)C(=O)c1cccc(Cl)c1 (stereo not drawn) [Amfebutamone (Bupropion)] is listed as 0.131 ± 0.2	0.9957 ± 0.0075	0.115 ± 0.067	0.231 ± 0.097
